The target in experiment [1] is T1, V5 epitope-tagged tyrosinase (UniProt P11344).
T1 sequence: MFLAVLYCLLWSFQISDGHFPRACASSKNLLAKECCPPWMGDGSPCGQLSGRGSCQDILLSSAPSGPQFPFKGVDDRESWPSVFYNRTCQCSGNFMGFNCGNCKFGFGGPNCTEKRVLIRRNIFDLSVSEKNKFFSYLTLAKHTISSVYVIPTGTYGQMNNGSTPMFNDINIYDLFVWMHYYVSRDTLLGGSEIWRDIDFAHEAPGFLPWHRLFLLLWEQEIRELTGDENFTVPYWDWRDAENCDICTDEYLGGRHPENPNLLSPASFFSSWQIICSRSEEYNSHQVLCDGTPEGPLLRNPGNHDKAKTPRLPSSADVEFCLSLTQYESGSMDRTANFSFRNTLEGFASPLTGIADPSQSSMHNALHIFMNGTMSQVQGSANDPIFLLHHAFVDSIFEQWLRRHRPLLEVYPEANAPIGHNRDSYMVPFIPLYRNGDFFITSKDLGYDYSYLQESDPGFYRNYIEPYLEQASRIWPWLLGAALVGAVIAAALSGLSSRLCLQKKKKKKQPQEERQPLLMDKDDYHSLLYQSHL
Put plainly: AlphaScreen or HTRF; screen of 224 biotinylated E3 ligases against V5-tagged bait; 1 uL of each cell-free product in 15 uL of 100 mM Tris-HCl pH 8.0, 0.01% Tween 20, 100 mM NaCl, 1 mg/mL BSA; 1 h at 26 °C; anti-V5 antibody, streptavidin donor and protein A acceptor beads; signal relative to V5-DHFR; run without (DMSO) and with inulavosin. (In general: Alpha assays give light when donor and acceptor beads are brought close together.)

The chains behind the UniProt entries cited, without tags or fusion partners.
UniProt P19474: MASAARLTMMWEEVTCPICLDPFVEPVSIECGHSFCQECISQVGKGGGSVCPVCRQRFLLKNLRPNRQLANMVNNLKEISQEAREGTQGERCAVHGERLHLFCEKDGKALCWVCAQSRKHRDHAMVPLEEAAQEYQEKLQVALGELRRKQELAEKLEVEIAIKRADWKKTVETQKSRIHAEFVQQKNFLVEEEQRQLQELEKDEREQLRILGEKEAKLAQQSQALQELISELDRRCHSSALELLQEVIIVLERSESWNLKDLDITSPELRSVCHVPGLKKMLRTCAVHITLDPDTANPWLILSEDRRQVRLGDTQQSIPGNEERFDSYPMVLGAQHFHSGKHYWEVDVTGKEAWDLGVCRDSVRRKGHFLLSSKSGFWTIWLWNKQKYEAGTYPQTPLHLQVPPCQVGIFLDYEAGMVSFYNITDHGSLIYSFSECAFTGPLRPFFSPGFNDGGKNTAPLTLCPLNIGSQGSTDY

Experiment [2] deals with T1, V5 epitope-tagged tyrosinase. The experiment is described as above. The source holds these as a separate data set.

Like-named read-outs stand apart in the source and are kept apart here. Results are given in words; binding and its absence hold for the method and conditions named. Some results given as binding are weak or reduced against the parent protein; the word gives no strength. Tags and fused reporters may be left off the sequences shown.

For “TRIM21 (biotinylated, E3 ligase protein array) (from UniProt P19474 1-475) (enzyme)”, in experiment [1], the binding result is recorded as “binds”.

B1: RNF152 (biotinylated, E3 ligase protein array) (enzyme, UniProt Q8N8N0 1-203)
chain: METLSQDSLLECQICFNYYSPRRRPKLLDCKHTCCSVCLQQMRTSQKDVRCPWCRGVTKLPPGFSVSQLPDDPEVLAVIAIPHTSEHTPVFIKLPSNGCYMLPLPISKERALLPGDMGCRLLPGSQQKSVTVVTIPAEQQPLQGGAPQEAVEEEQDRRGVVKSSTWSGVCTVILVACVLVFLLGIVLHNMSCISKRFTVISCG
modifications: biotinylated
With B1, the binding result in experiment [2] was “binds”.

B2: RNF41 (biotinylated, E3 ligase protein array) (enzyme, UniProt Q9H4P4 1-317)
chain: MGYDVTRFQGDVDEDLICPICSGVLEEPVQAPHCEHAFCNACITQWFSQQQTCPVDRSVVTVAHLRPVPRIMRNMLSKLQIACDNAVFGCSAVVRLDNLMSHLSDCEHNPKRPVTCEQGCGLEMPKDELPNHNCIKHLRSVVQQQQTRIAELEKTSAEHKHQLAEQKRDIQLLKAYMRAIRSVNPNLQNLEETIEYNEILEWVNSLQPARVTRWGGMISTPDAVLQAVIKRSLVESGCPASIVNELIENAHERSWPQGLATLETRQMNRRYYENYVAKRIPGKQAVVVMACENQHMGDDMVQEPGLVMIFAHGVEEI
modifications: biotinylated
Turning to B2, the binding entry in experiment [2] was “binds”.

B3: ZNF598 (biotinylated, E3 ligase protein array) (enzyme, UniProt Q86UK7 1-904)
chain: MAAAGGAEGRRAALEAAAAAAPERGGGSCVLCCGDLEATALGRCDHPVCYRCSTKMRVLCEQRYCAVCREELRQVVFGKKLPAFATIPIHQLQHEKKYDIYFADGKVYALYRQLLQHECPRCPELPPFSLFGDLEQHMRRQHELFCCRLCLQHLQIFTYERKWYSRKDLARHRMQGDPDDTSHRGHPLCKFCDERYLDNDELLKHLRRDHYFCHFCDSDGAQDYYSDYAYLREHFREKHFLCEEGRCSTEQFTHAFRTEIDLKAHRTACHSRSRAEARQNRHIDLQFSYAPRHSRRNEGVVGGEDYEEVDRYSRQGRVARAGTRGAQQSRRGSWRYKREEEDREVAAAVRASVAAQQQEEARRSEDQEEGGRPKKEEAAARGPEDPRGPRRSPRTQGEGPGPKETSTNGPVSQEAFSVTGPAAPGCVGVPGALPPPSPKLKDEDFPSLSASTSSSCSTAATPGPVGLALPYAIPARGRSAFQEEDFPALVSSVPKPGTAPTSLVSAWNSSSSSKKVAQPPLSAQATGSGQPTRKAGKGSRGGRKGGPPFTQEEEEDGGPALQELLSTRPTGSVSSTLGLASIQPSKVGKKKKVGSEKPGTTLPQPPPATCPPGALQAPEAPASRAEGPVAVVVNGHTEGPAPARSAPKEPPGLPRPLGSFPCPTPQEDFPALGGPCPPRMPPPPGFSAVVLLKGTPPPPPPGLVPPISKPPPGFSGLLPSPHPACVPSPATTTTTKAPRLLPAPRAYLVPENFRERNLQLIQSIRDFLQSDEARFSEFKSHSGEFRQGLISAAQYYKSCRDLLGENFQKVFNELLVLLPDTAKQQELLSAHTDFCNREKPLSTKSKKNKKSAWQATTQQAGLDCRVCPTCQQVLAHGDASSHQALHAARDDDFPSLQAIARIIT
modifications: biotinylated
On to B3, for which the binding result in experiment [2] is recorded as “binds”.

B4: VPS41 (biotinylated, E3 ligase protein array) (protein, UniProt P49754 1-854)
chain: MAEAEEQETGSLEESTDESEEEESEEEPKLKYERLSNGVTEILQKDAASCMTVHDKFLALGTHYGKVYLLDVQGNITQKFDVSPVKINQISLDESGEHMGVCSEDGKVQVFGLYSGEEFHETFDCPIKIIAVHPHFVRSSCKQFVTGGKKLLLFERSWMNRWKSAVLHEGEGNIRSVKWRGHLIAWANNMGVKIFDIISKQRITNVPRDDISLRPDMYPCSLCWKDNVTLIIGWGTSVKVCSVKERHASEMRDLPSRYVEIVSQFETEFYISGLAPLCDQLVVLSYVKEISEKTEREYCARPRLDIIQPLSETCEEISSDALTVRGFQENECRDYHLEYSEGESLFYIVSPRDVVVAKERDQDDHIDWLLEKKKYEEALMAAEISQKNIKRHKILDIGLAYINHLVERGDYDIAARKCQKILGKNAALWEYEVYKFKEIGQLKAISPYLPRGDPVLKPLIYEMILHEFLESDYEGFATLIREWPGDLYNNSVIVQAVRDHLKKDSQNKTLLKTLAELYTYDKNYGNALEIYLTLRHKDVFQLIHKHNLFSSIKDKIVLLMDFDSEKAVDMLLDNEDKISIKKVVEELEDRPELQHVYLHKLFKRDHHKGQRYHEKQISLYAEYDRPNLLPFLRDSTHCPLEKALEICQQRNFVEETVYLLSRMGNSRSALKMIMEELHDVDKAIEFAKEQDDGELWEDLILYSIDKPPFITGLLNNIGTHVDPILLIHRIKEGMEIPNLRDSLVKILQDYNLQILLREGCKKILVADSLSLLKKMHRTQMKGVLVDEENICESCLSPILPSDAAKPFSVVVFHCRHMFHKECLPMPSMNSAAQFCNICSAKNRGPGSAILEMKK
modifications: biotinylated
Take B4: the binding result in experiment [2] is on record as “binds”.

For the origin of these results see paper PMC10890620.
